Reference: PubChem BioAssay AID488908 (National Center for Advancing Translational Sciences (NCATS), 2010)
Inconclusive means that the source gave no clear call. Such entries were picked first, then a sample of the others. Where the call is inconclusive, the potency comes from a doubtful curve fit. Active and inactive are the calls of the source. The call rests on the fitted dose curve; in most records, active means well fitted inhibition curve with a large enough effect; inconclusive means small, poorly fitted or top-dose-only effect; inactive means flat fitted curve, though single readings scatter.

Assay: Secondary Assay for lipid storage modulators: Cytotoxcity for probe SAR
Settings: Drosophila S3 cells viability, CellTiter-Glo luminescence, 24 h; series mostly up to 46.1 µM; activity change, negative = cytotoxicity: at the top concentration
Description: NIH Molecular Libraries Probe Production Centers Network [MLPCN] NIH Chemical Genomics Center [NCGC] MLPCN Grant: 1 R03 MH085686-01 Assay Submitter (PI): Beller, Mathias; Max-Planck-Institut fur Biophysikalische Chemie, Germany. NCGC Assay Overview: Storing lipids as a reservoir for energy or the anabolism of elementary metabolites is a common feature of probably all cells and is conserved from bacteria to humans. The universal cellular lipid storage organelle is the so-called lipid storage droplet (LD). Although ubiquitous, LDs share a simple structure composed of a hydrophobic core that harbors the storage lipids, which is shielded by a droplet-specific phospholipid monolayer to which proteins are attached. The current model of LD biogenesis involves an incorporation of the lipid core into the membrane leaflets of the endoplasmic reticulum (ER) followed by a subsequent budding-like maturation of a LD, which ultimately pinches off. Once released, LD volume can increase by localized lipogenesis or fusion of existing droplet. Storage lipids are re-mobilized enzymatically by lipase activity. Lipase regulation in the adipocyte is heavily studied and involves multiple components including catecholamine signaling, the LD-associated proteins Perilipin and comparative gene identification (CGI-58) and at least two lipases named hormone sensitive lipase (HSL) and adipocyte triglyceride lipase (ATGL). LD regulation outside of the adipocyte is poorly understood and only few components are known. However, there is an urgent need to learn more about ectopic fat depots as mislocalized storage of lipids, for example in the liver or muscle, is an eminent health problem associated with insulin resistance or the metabolic syndrome. […]
Assay Protocol Summary: Cytotoxcity assay was performed with embryonic Drosophila S3 cells (Bloomington Drosophila Genomics Resource Center [DGRC]). […] Luminescence was detected on the Perkin Elmer ViewLux.

SMILES	Potency	activity change, negative = cytotoxicity
CCOc1ccc(CCNC(=O)c2cc3sccc3n2Cc2ccc(F)cc2F)cc1OCC	inconclusive: 9.96 µM [falling, partial curve]	–
CCOc1ccc(CCNC(=O)c2ccc(Oc3ccccc3)cc2)cc1OCC	–	inactive: -11.1%
CCOC(=O)C1CCN(C(=O)C2(NC(=O)Nc3ccccc3Cl)CCCC2)CC1	–	inactive: -6.46%
